Assay results as given in the supplement of paper PMC10338343.
± gives the standard deviation. The entries are a selection whose mix differs from that of the whole data set. Many of these values have a large error.

tested on: MIWI (PIWIL1) piRISC loaded with L1MC piRNA (30 nt); test: pre-steady-state target cleavage rate (min^-1); MIWI and MILI are mouse PIWI proteins and EfPiwi is from a freshwater sponge; tags in brackets are library labels; higher = faster piRNA-guided slicing of the target; settings: guide: L1MC piRNA 5'p-UAACUAAAUACUAUGCAAGCUGUAGGUCCU; auxiliary factor: none (no GTSF1)
Summary of the method: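 The pre-steady-state cleavage rate was obtained by Cleave-'n-Seq with a burst-and-steady-state fit. A transcribed, DNA-blocked target RNA library (0.1 nM) was mixed with 1 nM active affinity-purified piRISC carrying one synthetic guide, with or without 500 nM GTSF1 partner protein, in HEPES–potassium acetate buffer at 33 °C for 0–8 or 0–960 min. Uncleaved targets were sequenced and normalised to depth and to weakly complementary targets, with three trials pooled and k3 capped at 0.0001 min^-1.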

Sequence	pre-steady-state target cleavage rate
UCCACCUACAGCUACGAUAGUAUUUUCAAA	0.000203 ± 0.016
UGCACCUACAGCUUGCAUAGUAUUUUCAAA	0.00256 ± 0.0042
UCGACCUACAGCUUGCAAUGUAUUUACAAA	0.000977 ± 0.0071
UCCUGGAACAGCUUGCAUAGUAUUAUCAAA [g7:g23:cont:t1A]	0.0021 ± 0.0045
UCCUCCUACAGCUUCGAUAGUAUUUAGUUA	0.00146 ± 0.0024
UCGACCUACAGGUUCCAUAGUAUUUAGUUA	0.00117 ± 0.0037
UGGACCUACAGCUUGCAUAGUUUUUACAAA	0.00206 ± 0.0029
AGGACCUACAGCUUGCAUUCAUAAAUCAAA [g13:g30:cont:t1A]	0.000719 ± 0.01
UCGACCUACAGCUACGAUAGUAUUUUCAAA	0.000498 ± 0.013
AGGACCUACAGCUUGCAUAGAUUUAGUUA	0.00157 ± 0.0067
AGGUGCUACAGCUUGCAUAGUAUUUUCAAA	0.00187 ± 0.0034
UCCACCUACAGCUUCCAUAGAAUUUAGUUA	0.00107 ± 0.004
UCGACCUACAGCUUGCAUAGUUAAUAGAAA	0.00106 ± 0.0058
UCCACCUACAGCUUGCAUAGUAAUUACAAA	0.00086 ± 0.0079

Random excerpt: two entries already listed, in no set order.
Sequence	pre-steady-state target cleavage rate
UCCACCUACAGCUUCCAUAGAAUUUAGUUA	0.00107 ± 0.004
UCGACCUACAGCUUGCAAUGUAUUUACAAA	0.000977 ± 0.0071
